From PMC10794144, “A novel antibiotic class targeting the lipopolysaccharide transporter” (Nature, 2024)

System: A. baumannii
Conditions: A. baumannii ATCC19606, MHB, maximum over all reactors and samples

SMILES: CN1C(=O)[C@H](CCCCN)NC(=O)[C@H](CCCN)NCc2cccnc2Sc2cccc(-c3ccc(C(=O)O)cc3)c2CNC(=O)[C@@H]1Cc1c[nH]c2ccccc12 [zosurabalpin]
- MAX≥10% abundance of sequence variant lptF:Arg322Cys: 98%
- MAX≥10% abundance of sequence variant lptF:Arg322Ser: 61%
- MAX≥10% abundance of sequence variant lptF:Glu58Gly: 62%
- MAX≥10% abundance of sequence variant lptF:Lys320Glu: 83%
- MAX≥10% abundance of sequence variants csu: (all events): 94%
